Measurements taken from article PMC3680417, “Phosphorylation of the Leukemic Oncoprotein EVI1 on Serine 196 Modulates DNA Binding, Transcriptional Repression and Transforming Ability”.
The exact form of at least one protein or probe is not confirmed. A weaker result is weaker than the reference pair of the same experiment. Tags and fusion partners may be left off the protein sequences shown.

Tested on: T1, GST-Evi1 ZF1-7 S196D (mouse)
T1 sequence (looked up, limits assumed): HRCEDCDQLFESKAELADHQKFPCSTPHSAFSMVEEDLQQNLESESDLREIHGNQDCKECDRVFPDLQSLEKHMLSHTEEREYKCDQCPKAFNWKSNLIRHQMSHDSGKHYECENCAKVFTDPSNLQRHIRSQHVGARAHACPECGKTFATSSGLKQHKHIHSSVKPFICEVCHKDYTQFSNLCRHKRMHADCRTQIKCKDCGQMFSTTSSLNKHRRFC
Assay: EMSA
Details: native 5% acrylamide gel; pH and temperature not stated; recombinant protein; protein details: GST (N-terminal, pGEX); label: 5' IRDye

Sequence: ACCCATGGAGCTTTGAGCCCTGTTATCTTGTCAGGGAAGTGTACCATGGA (double strand) [EVI1 ZF1-7 target EMSA probe]
- binding result: binds more weakly
